Data as given in US8193121B2, “2-(3-alkylthiobenzoyl)cyclohexanediones and their use as herbicides” (Bayer Cropscience AG, priority 2009, dated 2012).
Some results were stated once for a whole list of compounds, not compound by compound.

Experiments:
Assay type in all cases: in vivo
Echinochloa crus galli = assay: Post-emergence herbicidal action against harmful plants; details: application rate 80 g/ha, visual rating after about 3 weeks vs untreated controls
Stellaria media = assay: as above; details: application rate 80 g/ha, visual rating after about 3 weeks vs untreated controls
Pharbitis purpureum = assay: as above; details: application rate 80 g/ha, visual rating after about 3 weeks vs untreated controls
Veronica persica = assay: Pre-emergence herbicidal action against harmful plants; details: application rate 80 g/ha, visual assessment after 3 weeks vs untreated controls
Abutilon theophrasti = assay: as above; details: application rate 80 g/ha, visual assessment after 3 weeks vs untreated controls
Alopecurus myosuroides = assay: as above; details: application rate 80 g/ha, visual assessment after 3 weeks vs untreated controls
Amaranthus retroflexus = assay: as above; details: application rate 80 g/ha, visual assessment after 3 weeks vs untreated controls
Viola tricolor = assay: Post-emergence herbicidal action against harmful plants; details: application rate 80 g/ha, visual rating after about 3 weeks vs untreated controls
Avena fatua = assay: as above; details: application rate 80 g/ha, visual rating after about 3 weeks vs untreated controls
Matricaria inodora = assay: as above; details: application rate 80 g/ha, visual rating after about 3 weeks vs untreated controls

Measured: herbicidal activity in percent

COc1c(C(=O)C2=C(O)CCCC2=O)ccc(C(F)(F)F)c1SC [1-13]
at least 90%: Echinochloa crus galli | Stellaria media | Pharbitis purpureum

COc1c(C(=O)C2=C(O)CCCC2=O)ccc(C(F)(F)F)c1S(C)(=O)=O [1-21]
at least 90%: Veronica persica | Echinochloa crus galli | Stellaria media | Abutilon theophrasti | Pharbitis purpureum

COc1c(C(=O)C2=C(O)C3CCC(C3)C2=O)ccc(C(F)(F)F)c1[S+](C)[O-] (stereo not drawn) [5-17]
at least 90%: Veronica persica | Abutilon theophrasti

COc1c(C(=O)C2=C(O)C(C)(C)CCC2=O)ccc(C(F)(F)F)c1S(C)(=O)=O [2-21]
at least 90%: Veronica persica | Echinochloa crus galli | Alopecurus myosuroides | Amaranthus retroflexus | Stellaria media | Pharbitis purpureum

COc1c(C(=O)C2=C(O)CC(C)(C)CC2=O)ccc(C(F)(F)F)c1[S+](C)[O-] (stereo not drawn) [3-17]
at least 90%: Viola tricolor | Avena fatua | Matricaria inodora

COc1c(C(=O)C2=C(O)C(C)(C)CCC2=O)ccc(C(F)(F)F)c1[S+](C)[O-] (stereo not drawn) [2-17]
at least 90%: Veronica persica | Viola tricolor | Avena fatua | Matricaria inodora | Alopecurus myosuroides | Amaranthus retroflexus

COc1c(C(=O)C2=C(O)C3CCC(C3)C2=O)ccc(C(F)(F)F)c1S(C)(=O)=O (stereo not drawn) [5-21]
at least 90%: Veronica persica | Viola tricolor | Avena fatua | Matricaria inodora | Abutilon theophrasti

COc1c(C(=O)C2C(=O)CCCC2=O)ccc(C(F)(F)F)c1[S+](C)[O-] (stereo not drawn) [1-17, 2-(2-Methoxy-3-methylsulfinyl-4-(trifluoromethyl)benzoyl)cyclohexane-1,3-dione]
at least 90%: Echinochloa crus galli | Stellaria media | Pharbitis purpureum
